Measurements reported in paper PMC12521168.
Results are given in words; binding and its absence hold for the method and conditions named. In cells and extracts the contact can be indirect. Some binding calls cover weakened binding; strength is not graded here.

The chains behind the UniProt entries cited, without tags or fusion partners.
UniProt P46938: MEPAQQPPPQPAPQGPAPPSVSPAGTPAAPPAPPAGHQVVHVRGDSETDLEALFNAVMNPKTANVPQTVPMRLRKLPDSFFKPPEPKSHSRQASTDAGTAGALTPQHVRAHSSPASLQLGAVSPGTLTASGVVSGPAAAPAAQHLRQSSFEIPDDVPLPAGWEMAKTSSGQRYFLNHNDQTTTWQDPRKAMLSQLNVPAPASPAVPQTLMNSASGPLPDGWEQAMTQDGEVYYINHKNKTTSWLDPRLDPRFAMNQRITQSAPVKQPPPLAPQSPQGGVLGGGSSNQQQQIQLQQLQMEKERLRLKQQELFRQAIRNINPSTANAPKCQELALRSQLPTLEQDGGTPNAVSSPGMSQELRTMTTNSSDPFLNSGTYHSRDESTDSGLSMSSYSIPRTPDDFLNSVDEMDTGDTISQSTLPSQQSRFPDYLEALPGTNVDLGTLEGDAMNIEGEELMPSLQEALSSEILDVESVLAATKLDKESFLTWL
UniProt P30051: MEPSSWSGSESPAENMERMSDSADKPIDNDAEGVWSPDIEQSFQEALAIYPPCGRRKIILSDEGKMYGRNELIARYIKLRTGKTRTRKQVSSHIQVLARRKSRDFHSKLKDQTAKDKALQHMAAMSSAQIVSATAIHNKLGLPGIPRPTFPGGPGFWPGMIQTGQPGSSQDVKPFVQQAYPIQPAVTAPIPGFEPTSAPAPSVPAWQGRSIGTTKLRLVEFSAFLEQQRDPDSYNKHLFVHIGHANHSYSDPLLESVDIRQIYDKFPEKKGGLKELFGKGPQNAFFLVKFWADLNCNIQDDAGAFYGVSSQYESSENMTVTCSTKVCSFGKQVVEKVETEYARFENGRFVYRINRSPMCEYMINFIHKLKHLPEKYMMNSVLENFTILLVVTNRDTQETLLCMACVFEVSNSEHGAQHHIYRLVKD

Target: Yes-associated protein 1 (UniProt P46938)
Assay: co-IP; whole-cell extracts prepared after transfection, incubated with the YAP1 antibody overnight at 4 °C, protein A&G beads 4 hours at 4 °C; western blot for TEAD1

binding: binds
Substance: TEAD1 (from UniProt P30051 1-426)
